Reference: US20210261642A1, “SOLUBILITY OF GLP-1 PEPTIDE” (Novo Nordisk A/S, priority 2017, published 2021)
The source gives many values for each of these; only a part stands here.

Experiment: Assay (I): Determination of Solubility (96-well plate, pH 3.0-11.0, organic solvent 0-70% w/w, UV absorption at 280 nm)
Format: physicochemical
Settings: Method 1
Procedure: Assay (I): Determination of Solubility
96-Well Plate Preparation
96-well plates containing target peptide in a solid form were prepared in one of two ways:
Method 1 (evaporation): Addition of 100 μl stock solution of said peptide at a concentration of 4-6 mg/ml to each well of a 96-well half area plate (150 μl well size). Subsequently the solvent was evaporated by applying a vacuum until the solvent was completely removed.
Method 2 (precipitation): Addition of a certain volume of a stock solution of said peptide containing to each well of a 96-well half area plate followed by the addition of a certain volume of concentrated phosphoric acid to obtain a pH of 4.6 followed by addition of a certain volume of ethanol resulting in a final ethanol concentration of 20% v/v. Subsequently the plate was stored at 4° C. for 1 h and then centrifuged at 4,000 rpm for 20 min. Finally the supernatant was removed. The concentration of the stock solution was chosen in a way that the final amount of peptide after supernatant removal was >0.4 mg per well.
In both cases the stock solution was prepared by adding de-ionized water to a certain amount of powder of said peptide followed by a stepwise addition of small amounts of a concentrated sodium hydroxide solution until said peptide was completely in solution.
To determine solubility of a target peptide at different pH and organic solvent concentrations, two different buffer systems were used in independent experiments to cover the whole range from pH 3.0 to pH 11.0. Buffer system 1 covers pH 3.0-7.5 and buffer system 2 covers pH 7.5-11.0. For each buffer system 96 different solvent compositions were premixed in the following way: • 1. A low pH buffer (adjusted to either pH 3.0 or pH 7.5) and a high pH buffer (adjusted to either pH 7.5 or pH 11.0) were mixed at 8 different ratios to obtain values between pH 3.0 and pH 7.5 or pH 7.5 and pH 11.0, respectively. The total volume after mixing was 300 μl. • 2. 12 different amounts of organic solvent were then added to these buffers to obtain organic solvent (e.g. ethanol) concentrations between 0 and 70% w/w. • 3. Water was then added to obtain a total weight of 1.0 g of solvent in each well.
After preparing the 96 different solvent systems, 100 μl of each system was transferred to the 96-well plate containing the solid form of the target peptide (prepared as described in the section “96-well plate preparation”). The plate was then stored at a given temperature (between 5° C. and 70° C.) for a given time on a rotating shaker set to 400 rpm. At regular time intervals the plate was centrifuged (4,000 rpm for 10 min) and a 10 μl sample was taken from each well. The samples were then analysed by UV absorption at 280 nm for peptide quantification. Peptide concentration results are given as UV absorption at 280 nm of the sample subtracted UV absorption at 280 nm of a well comprising 10 μl water.
The buffers used were as follows: • Buffer system 1 (for the pH range from pH 3.0-7.5)
• Buffer system 2 (for the pH ranae from pH 7.5-11.0)
Solubility of liraglutide was determined using Assay (I) described herein. Liraglutide was prepared using Method 1 (evaporation) or Method 2 (precipitation) as described in subsection “96-well plate preparation”.

[1] = MeCN 19.1% w/w, pH 10.0, 70° C.
[2] = MeCN 19.1% w/w, pH 10.5, 70° C.
[3] = MeCN 19.1% w/w, pH 11.0, 70° C.

Q: With `CCCCCCCCCCCCCCCC(=O)N[C@@H](CCC(=O)NCCCC[C@H](NC(=O)[C@H](C)NC(=O)[C@H](C)NC(=O)[C@H](CCC(N)=O)NC(=O)CNC(=O)[C@H](CCC(=O)O)NC(=O)[C@H](CC(C)C)NC(=O)[C@H](Cc1ccc(O)cc1)NC(=O)[C@H](CO)NC(=O)[C@H](CO)NC(=O)[C@@H](NC(=O)[C@H](CC(=O)O)NC(=O)[C@H](CO)NC(=O)[C@@H](NC(=O)[C@H](Cc1ccccc1)NC(=O)[C@@H](NC(=O)CNC(=O)[C@H](CCC(=O)O)NC(=O)[C@H](C)NC(=O)[C@@H](N)Cc1cnc[nH]1)[C@@H](C)O)[C@@H](C)O)C(C)C)C(=O)N[C@@H](CCC(=O)O)C(=O)N[C@@H](Cc1ccccc1)C(=O)N[C@H](C(=O)N[C@@H](C)C(=O)N[C@@H](Cc1c[nH]c2ccccc12)C(=O)N[C@@H](CC(C)C)C(=O)N[C@H](C(=O)N[C@@H](CCCNC(=N)N)C(=O)NCC(=O)N[C@@H](CCCNC(=N)N)C(=O)NCC(=O)O)C(C)C)[C@@H](C)CC)C(=O)O` [liraglutide, Arg34,Lys26-(N-epsilon-(gamma-L-glutamyl(N-alfa-hexadecanoyl)))-GLP-1(7-37)] as the compound, how does the “Peptide concentration after 5 min” value (MeCN 19.1% w/w, pH 6.9, 70° C.) read?
A: Its value is >4.0 mg/mL.

Q: And the “Peptide concentration after 180 min” value (MeCN 19.1% w/w, pH 6.9, 70° C.)?
A: Its value is >4.0 mg/mL.

Q: What about the “Peptide concentration after 5 min” value (MeCN 19.1% w/w, pH 6.9, RT) of the same compound?
A: The value was 1.2 mg/mL.

Q: And the “Peptide concentration after 180 min” value (MeCN 19.1% w/w, pH 6.9, RT)?
A: Its value is >4.0 mg/mL.

Q: And the “Peptide concentration after 24 h” value (MeCN 19.1% w/w, pH 6.9, RT)?
A: The value was >4.0 mg/mL.

Q: And the “Peptide concentration after 5 min” value (MeCN 19.1% w/w, pH 7.5, 5° C.)?
A: Its value is 1.4 mg/mL.

Q: What about the “Peptide concentration after 180 min” value (MeCN 19.1% w/w, pH 7.5, 5° C.) of the same compound?
A: The value was 2.9 mg/mL.

Q: And the “Peptide concentration after 24 h” value (MeCN 19.1% w/w, pH 7.5, 5° C.)?
A: The value was >4.0 mg/mL.

Q: What about the “Peptide concentration after 5 min” value (MeCN 19.1% w/w, pH 7.5, 70° C.) of the same compound?
A: The value was >4.0 mg/mL.

Q: What about the “Peptide concentration after 180 min” value (MeCN 19.1% w/w, pH 7.5, 70° C.) of the same compound?
A: Its value is >4.0 mg/mL.

Q: What about the “Peptide concentration after 5 min” value (MeCN 19.1% w/w, pH 7.5, RT) of the same compound?
A: The value was 1.6 mg/mL.

Q: What about the “Peptide concentration after 180 min” value (MeCN 19.1% w/w, pH 7.5, RT) of the same compound?
A: Its value is >4.0 mg/mL.

Q: And the “Peptide concentration after 24 h” value (MeCN 19.1% w/w, pH 7.5, RT)?
A: The value was >4.0 mg/mL.

Q: And the “Peptide concentration after 5 min” value (MeCN 19.1% w/w, pH 8.0, 70° C.)?
A: Its value is >4.0 mg/mL.

Q: What about the “Peptide concentration after 180 min” value (MeCN 19.1% w/w, pH 8.0, 70° C.) of the same compound?
A: The value was >4.0 mg/mL.

Q: What about the “Peptide concentration after 5 min” value (MeCN 19.1% w/w, pH 8.0, RT) of the same compound?
A: The value was 1.6 mg/mL.

Q: What about the “Peptide concentration after 180 min” value (MeCN 19.1% w/w, pH 8.0, RT) of the same compound?
A: Its value is 3.9 mg/mL.

Q: What about the “Peptide concentration after 24 h” value (MeCN 19.1% w/w, pH 8.0, RT) of the same compound?
A: Its value is >4.0 mg/mL.

Q: What about the “Peptide concentration after 5 min” value (MeCN 19.1% w/w, pH 8.5, 70° C.) of the same compound?
A: The value was >4.0 mg/mL.

Q: What about the “Peptide concentration after 180 min” value (MeCN 19.1% w/w, pH 8.5, 70° C.) of the same compound?
A: The value was >4.0 mg/mL.

Q: And the “Peptide concentration after 5 min” value (MeCN 19.1% w/w, pH 8.5, RT)?
A: Its value is 1.2 mg/mL.

Q: What about the “Peptide concentration after 180 min” value (MeCN 19.1% w/w, pH 8.5, RT) of the same compound?
A: The value was 3.7 mg/mL.

Q: What about the “Peptide concentration after 24 h” value (MeCN 19.1% w/w, pH 8.5, RT) of the same compound?
A: Its value is >4.0 mg/mL.

Q: And the “Peptide concentration after 5 min” value (MeCN 19.1% w/w, pH 9.0, 70° C.)?
A: The value was >4.0 mg/mL.

Q: What about the “Peptide concentration after 180 min” value (MeCN 19.1% w/w, pH 9.0, 70° C.) of the same compound?
A: Its value is >4.0 mg/mL.

Q: What about the “Peptide concentration after 5 min” value (MeCN 19.1% w/w, pH 9.0, RT) of the same compound?
A: Its value is 1.0 mg/mL.

Q: What about the “Peptide concentration after 180 min” value (MeCN 19.1% w/w, pH 9.0, RT) of the same compound?
A: Its value is 3.7 mg/mL.

Q: And the “Peptide concentration after 24 h” value (MeCN 19.1% w/w, pH 9.0, RT)?
A: Its value is >4.0 mg/mL.

Q: And the “Peptide concentration after 5 min” value (MeCN 19.1% w/w, pH 9.5, 70° C.)?
A: Its value is >4.0 mg/mL.

Q: And the “Peptide concentration after 180 min” value (MeCN 19.1% w/w, pH 9.5, 70° C.)?
A: Its value is >4.0 mg/mL.

Q: And the “Peptide concentration after 5 min” value (MeCN 19.1% w/w, pH 9.5, RT)?
A: Its value is 1.7 mg/mL.

Q: What about the “Peptide concentration after 180 min” value (MeCN 19.1% w/w, pH 9.5, RT) of the same compound?
A: Its value is >4.0 mg/mL.

Q: What about the “Peptide concentration after 24 h” value (MeCN 19.1% w/w, pH 9.5, RT) of the same compound?
A: The value was >4.0 mg/mL.

Q: And the “Peptide concentration after 5 min” value [1]?
A: Its value is >4.0 mg/mL.

Q: And the “Peptide concentration after 180 min” value [1]?
A: Its value is >4.0 mg/mL.

Q: And the “Peptide concentration after 5 min” value (MeCN 19.1% w/w, pH 10.0, RT)?
A: Its value is 1.3 mg/mL.

Q: What about the “Peptide concentration after 180 min” value (MeCN 19.1% w/w, pH 10.0, RT) of the same compound?
A: The value was >4.0 mg/mL.

Q: And the “Peptide concentration after 24 h” value (MeCN 19.1% w/w, pH 10.0, RT)?
A: Its value is >4.0 mg/mL.

Q: And the “Peptide concentration after 5 min” value [2]?
A: The value was >4.0 mg/mL.

Q: What about the “Peptide concentration after 180 min” value [2] of the same compound?
A: Its value is >4.0 mg/mL.

Q: And the “Peptide concentration after 5 min” value (MeCN 19.1% w/w, pH 10.5, RT)?
A: Its value is 1.6 mg/mL.

Q: What about the “Peptide concentration after 180 min” value (MeCN 19.1% w/w, pH 10.5, RT) of the same compound?
A: The value was >4.0 mg/mL.

Q: And the “Peptide concentration after 24 h” value (MeCN 19.1% w/w, pH 10.5, RT)?
A: Its value is >4.0 mg/mL.

Q: What about the “Peptide concentration after 5 min” value [3] of the same compound?
A: Its value is 3.8 mg/mL.

Q: What about the “Peptide concentration after 180 min” value [3] of the same compound?
A: The value was >4.0 mg/mL.

Q: What about the “Peptide concentration after 5 min” value (MeCN 19.1% w/w, pH 11.0, RT) of the same compound?
A: Its value is 1.3 mg/mL.

Q: What about the “Peptide concentration after 180 min” value (MeCN 19.1% w/w, pH 11.0, RT) of the same compound?
A: The value was 3.6 mg/mL.

Q: What about the “Peptide concentration after 24 h” value (MeCN 19.1% w/w, pH 11.0, RT) of the same compound?
A: Its value is >4.0 mg/mL.

Q: And the “Peptide concentration after 5 min” value (MeCN 25.5% w/w, pH 3.0, 5° C.)?
A: The value was 0.4 mg/mL.

Q: And the “Peptide concentration after 180 min” value (MeCN 25.5% w/w, pH 3.0, 5° C.)?
A: The value was 0.7 mg/mL.
